Our source for the Inhibition values is ChEMBL document CHEMBL4513145, “CO-ADD screening of Biotechnology Research Centre (C.R.B.t) (Algeria) compounds”.

For orientation: Inhibition means the relative decrease from the control value, in per cent.

Where “and” joins values, the source holds several entries; their conditions need not be identical. Identical values can stand only once. The list shows a part of the results. Measured potencies and affinities stand elsewhere.

For this experiment, the system named is Pseudomonas aeruginosa. The conditions noted are these: Concentration 32 ug.mL-1, ASSAY_TEST Inhibition of Bacterial Growth, detection method Absorption (OD600), MEDIA CAMHB, plate type 384well, NBS, CORNING #3640, time 18 hr.

`CC(C)(C)OC(=O)N1C(O)C2CCCC2N1S(=O)(=O)c1ccc([N+](=O)[O-])cc1` (stereo not drawn): the Inhibition is listed as -23.89%.
Still for that read-out and setting: then `CC1C(O)N(C(=O)OC(C)(C)C)N(S(=O)(=O)c2ccc([N+](=O)[O-])cc2)C1C` (stereo not drawn), with 5.31%; and `O=C(OCc1ccccc1)N1OC(O)C2CCCCC21` (stereo not drawn), with 10.75%.
Same read-out and setting: next, `CCCCCCCC1CN(S(=O)(=O)c2ccc(C)cc2)N(C(=O)OC(C)(C)C)C1=O` (stereo not drawn): 2.47%; `O=C(OCc1ccccc1)N1CC(Cc2ccccc2)C(O)O1` (stereo not drawn): -8.1%.
With `CC1CN(S(=O)(=O)c2ccc([N+](=O)[O-])cc2)N(C(=O)OC(C)(C)C)C1O` (stereo not drawn), the Inhibition is listed as -10.15%.
On the same count and under the same terms, then `CC1CN(C(=O)OCc2ccccc2)OC1O` (stereo not drawn), with 27.74%.
With `O=C1ON(C(=O)OCc2ccccc2)CC1Cc1ccccc1` (stereo not drawn), the Inhibition (32 ug/mL) is 8.06% and 19.06%.
Same read-out and setting: then `Cc1ccc(S(=O)(=O)N2CC(Cc3ccccc3)C(=O)N2S(=O)(=O)c2ccc(C)cc2)cc1` (stereo not drawn), with 11.67% and 7.14%; and `Cc1ccc(S(=O)(=O)N2CC(C)C(=O)N2S(=O)(=O)c2ccc(C)cc2)cc1` (stereo not drawn), with 6.74% and 18.06%.
Turning to `CCCCCCCC1CN(S(=O)(=O)c2ccc(C)cc2)N(S(=O)(=O)c2ccc(C)cc2)C1O` (stereo not drawn), the Inhibition worked out at 13.24%.
On the same count and under the same terms, then `CCCCCCCC1CN(S(=O)(=O)c2ccc(C)cc2)N(C(=O)OC(C)(C)C)C1O` (stereo not drawn), with 11.9%.
Turning to `CC1CN(S(=O)(=O)c2ccc([N+](=O)[O-])cc2)N(C(=O)OC(C)(C)C)C1=O` (stereo not drawn), where the note is “32 ug/mL”, the Inhibition is 17.07% and 8.92% and 22.9%.
